Measurements reported in PMC7747709.
For at least one entry, the source does not settle the construct or the ends of the probe.

Chains of the proteins cited; added tags and fusions are not shown. A line that says so, or that is headed by a name, gives the form on record, which may keep a tag or linker.
chCD40ED (chicken CD40 extra domain) (Gallus gallus), one chain, as listed by the source: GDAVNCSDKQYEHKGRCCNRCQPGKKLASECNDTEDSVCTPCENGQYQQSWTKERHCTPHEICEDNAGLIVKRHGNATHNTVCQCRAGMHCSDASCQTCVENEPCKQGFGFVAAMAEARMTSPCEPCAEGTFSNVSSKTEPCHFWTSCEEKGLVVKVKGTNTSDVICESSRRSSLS

Columns and labels:
[1] = tested on: chCD40ED (chicken CD40 extra domain) (Gallus gallus); experiment: dot blot; conditions: binding at 25 uM or higher, Dot blot: protein 15 ug/mL on PVDF, aptamer 12-50 uM, KPL blocking/wash buffers (IPBST negative control), proteolysis: 25 mM NH4HCO3 pH ~7.5, 37 C, 1 h, recombinant protein, single-stranded DNA
[2] = tested on: chCD40ED (chicken CD40 extra domain) (Gallus gallus); experiment: limited trypsin proteolysis protection, LC-ESI-MS; conditions: 25 mM NH4HCO3 pH ~7.5, 37 C; Dot blot: protein 15 ug/mL on PVDF, aptamer 12-50 uM, KPL blocking/wash buffers (IPBST negative control); proteolysis: 25 mM NH4HCO3 pH ~7.5, 37 C, 1 h; recombinant protein; label: 5' biotin (dot blot); single-stranded DNA

Row | Sequence | binding result ([1]; label: 5' biotin) | binding result ([1]; label: 5' biotin (dot blot)) | binding result [2]
1 | CCGAATTCGAAGGACAAGAGAGAAAAAACGAATCCCAGGACAGACCGGCGTGTCGAGTCCTCTTTTATGCTACGTCCCGC [SEQ2] | binds | – | –
2 | CCGAATTCGAAGGACAAGAGAGATGAGGGATGCTGTCAAGTCAGTATGGTTGGTCATCTCTCTTTTATGCTACGTCCCGC [SEQ7] | binds | – | –
3 | CCGAATTCGAAGGACAAGAGCAACATTTCTTTTACCCCTATCCTTTGCAACTACCCCCATTCTTTTATGCTACGTCCCGC [SEQ8] | binds | – | –
4 | CCGAATTCGAAGGACAAGAGCAGACAAACGAGTATTAGGACAGAACGGTAGCACGACTCATCTTTTATGCTACGTCCCGC [SEQ1] | binds | – | –
5 | CCGAATTCGAAGGACAAGAGGTAAGTCACGACGTCCTAGGATGACCAGTTCCGATTGTTCTCTTTTATGCTACGTCCCGC [SEQ6] | binds | – | –
6 | CCGAATTCGAAGGACAAGAGGTGGAATTGGTAATGGGGTGTAAATGGAGCAGTGAATTCGTCTTTTATGCTACGTCCCGC [SEQ3] | – | binds | binds
7 | CCGAATTCGAAGGACAAGAGTAAGTGCAGTTTGGGTTTTCTTTTATGCTACGTCCCGCTCTTTTATGCTACGTCCCGC [SEQ5] | binds | – | –
8 | CCGAATTCGAAGGACAAGAGTAGGGCTACATGGAATAGGGATCAGAAGAGCAGGGCTAGGTCTTTTATGCTACGTCCCGC [SEQ4] | – | binds | binds
